According to the supplement of paper PMC10849652:
The list shows a part of the results. Residues, ends and D or L forms follow the SMILES beside them. *: point of attachment. Cbz = O=C(OCc1ccccc1)*

Amino acid sequences for entries named in this document (tags omitted). A change or cut given only in a name is not applied to a line headed by its entry.
UniProt O43819: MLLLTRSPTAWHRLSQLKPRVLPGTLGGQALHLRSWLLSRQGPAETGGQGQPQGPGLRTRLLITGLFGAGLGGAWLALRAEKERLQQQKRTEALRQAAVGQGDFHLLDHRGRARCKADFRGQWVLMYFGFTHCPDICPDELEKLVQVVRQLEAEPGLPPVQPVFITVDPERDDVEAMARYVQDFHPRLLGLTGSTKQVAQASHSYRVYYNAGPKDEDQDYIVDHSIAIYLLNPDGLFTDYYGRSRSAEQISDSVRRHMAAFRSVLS
UniProt Q9UPN6: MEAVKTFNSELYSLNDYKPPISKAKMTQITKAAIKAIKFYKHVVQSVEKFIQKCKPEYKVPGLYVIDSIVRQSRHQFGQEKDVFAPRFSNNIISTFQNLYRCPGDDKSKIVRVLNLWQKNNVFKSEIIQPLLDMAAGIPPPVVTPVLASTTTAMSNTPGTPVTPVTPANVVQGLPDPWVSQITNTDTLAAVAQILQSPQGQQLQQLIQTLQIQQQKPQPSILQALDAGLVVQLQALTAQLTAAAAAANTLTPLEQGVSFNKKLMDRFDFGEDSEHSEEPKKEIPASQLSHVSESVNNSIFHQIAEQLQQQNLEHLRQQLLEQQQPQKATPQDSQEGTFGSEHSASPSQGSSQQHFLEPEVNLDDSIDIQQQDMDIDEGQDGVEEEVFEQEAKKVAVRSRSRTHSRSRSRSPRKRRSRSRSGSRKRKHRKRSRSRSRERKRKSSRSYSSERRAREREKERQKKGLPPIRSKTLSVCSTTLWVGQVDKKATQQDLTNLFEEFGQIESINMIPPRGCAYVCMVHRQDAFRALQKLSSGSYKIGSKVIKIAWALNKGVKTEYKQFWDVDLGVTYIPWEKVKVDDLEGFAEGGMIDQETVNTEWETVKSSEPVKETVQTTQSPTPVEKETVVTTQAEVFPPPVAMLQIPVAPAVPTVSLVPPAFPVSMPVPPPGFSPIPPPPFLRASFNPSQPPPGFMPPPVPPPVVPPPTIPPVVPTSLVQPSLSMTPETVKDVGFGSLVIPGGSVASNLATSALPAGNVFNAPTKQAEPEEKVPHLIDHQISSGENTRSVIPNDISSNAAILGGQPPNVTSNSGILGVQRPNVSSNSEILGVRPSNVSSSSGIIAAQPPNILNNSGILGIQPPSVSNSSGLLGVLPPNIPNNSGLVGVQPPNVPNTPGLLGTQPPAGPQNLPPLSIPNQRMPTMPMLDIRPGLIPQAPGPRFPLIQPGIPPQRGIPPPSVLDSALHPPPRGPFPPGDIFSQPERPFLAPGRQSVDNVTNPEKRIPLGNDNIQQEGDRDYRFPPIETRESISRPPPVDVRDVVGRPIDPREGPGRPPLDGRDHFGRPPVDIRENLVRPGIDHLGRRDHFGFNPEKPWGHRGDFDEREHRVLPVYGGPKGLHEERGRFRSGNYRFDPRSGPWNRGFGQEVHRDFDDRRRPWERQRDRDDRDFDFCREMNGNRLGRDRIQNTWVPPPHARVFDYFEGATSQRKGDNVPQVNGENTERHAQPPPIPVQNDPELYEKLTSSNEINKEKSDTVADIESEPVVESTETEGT
UniProt O00767: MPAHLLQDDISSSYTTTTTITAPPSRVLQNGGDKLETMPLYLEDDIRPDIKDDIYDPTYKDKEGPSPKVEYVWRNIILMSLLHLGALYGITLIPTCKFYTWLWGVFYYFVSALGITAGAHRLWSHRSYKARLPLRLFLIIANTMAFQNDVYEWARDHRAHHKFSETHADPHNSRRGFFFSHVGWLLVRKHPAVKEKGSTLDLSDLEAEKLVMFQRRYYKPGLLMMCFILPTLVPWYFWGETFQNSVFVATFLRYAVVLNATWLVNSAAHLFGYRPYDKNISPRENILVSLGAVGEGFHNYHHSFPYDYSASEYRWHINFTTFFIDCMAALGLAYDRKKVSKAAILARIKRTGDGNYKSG
UniProt Q99590: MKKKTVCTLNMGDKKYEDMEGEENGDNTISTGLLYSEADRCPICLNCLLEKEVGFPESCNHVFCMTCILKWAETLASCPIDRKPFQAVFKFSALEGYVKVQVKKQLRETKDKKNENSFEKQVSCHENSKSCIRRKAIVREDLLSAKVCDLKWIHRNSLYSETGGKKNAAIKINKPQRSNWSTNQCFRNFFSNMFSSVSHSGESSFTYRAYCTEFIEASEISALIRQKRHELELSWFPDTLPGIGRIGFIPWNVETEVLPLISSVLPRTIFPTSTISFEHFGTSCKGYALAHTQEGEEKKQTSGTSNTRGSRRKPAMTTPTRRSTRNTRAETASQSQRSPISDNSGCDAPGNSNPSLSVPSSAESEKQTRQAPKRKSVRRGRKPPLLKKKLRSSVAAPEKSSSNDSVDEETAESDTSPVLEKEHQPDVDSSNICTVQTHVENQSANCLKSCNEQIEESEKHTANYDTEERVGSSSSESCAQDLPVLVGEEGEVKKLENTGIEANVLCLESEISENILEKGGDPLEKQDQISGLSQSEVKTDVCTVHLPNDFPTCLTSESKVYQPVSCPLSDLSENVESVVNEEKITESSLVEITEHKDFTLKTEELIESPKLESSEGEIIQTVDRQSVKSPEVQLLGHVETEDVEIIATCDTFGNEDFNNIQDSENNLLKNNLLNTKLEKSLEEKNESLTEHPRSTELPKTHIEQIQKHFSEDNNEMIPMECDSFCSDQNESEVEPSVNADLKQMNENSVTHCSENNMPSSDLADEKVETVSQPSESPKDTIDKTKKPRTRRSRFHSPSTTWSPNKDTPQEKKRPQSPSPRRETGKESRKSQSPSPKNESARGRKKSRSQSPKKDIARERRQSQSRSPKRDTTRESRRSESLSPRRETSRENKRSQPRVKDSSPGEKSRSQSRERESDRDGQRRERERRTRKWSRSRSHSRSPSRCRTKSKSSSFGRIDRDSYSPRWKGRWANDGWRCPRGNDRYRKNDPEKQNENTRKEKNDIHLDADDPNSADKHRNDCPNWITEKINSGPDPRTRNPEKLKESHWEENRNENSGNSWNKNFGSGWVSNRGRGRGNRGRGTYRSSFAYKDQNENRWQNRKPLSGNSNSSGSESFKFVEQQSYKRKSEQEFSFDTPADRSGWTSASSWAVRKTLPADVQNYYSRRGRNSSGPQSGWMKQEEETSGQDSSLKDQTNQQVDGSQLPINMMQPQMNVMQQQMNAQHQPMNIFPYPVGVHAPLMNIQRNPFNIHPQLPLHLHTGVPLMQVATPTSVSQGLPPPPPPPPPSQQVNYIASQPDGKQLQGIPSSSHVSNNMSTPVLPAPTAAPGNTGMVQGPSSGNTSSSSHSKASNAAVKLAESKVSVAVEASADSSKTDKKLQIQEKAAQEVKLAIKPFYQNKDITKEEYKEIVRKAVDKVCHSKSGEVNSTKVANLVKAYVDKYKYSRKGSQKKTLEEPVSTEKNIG
UniProt Q8NBX0: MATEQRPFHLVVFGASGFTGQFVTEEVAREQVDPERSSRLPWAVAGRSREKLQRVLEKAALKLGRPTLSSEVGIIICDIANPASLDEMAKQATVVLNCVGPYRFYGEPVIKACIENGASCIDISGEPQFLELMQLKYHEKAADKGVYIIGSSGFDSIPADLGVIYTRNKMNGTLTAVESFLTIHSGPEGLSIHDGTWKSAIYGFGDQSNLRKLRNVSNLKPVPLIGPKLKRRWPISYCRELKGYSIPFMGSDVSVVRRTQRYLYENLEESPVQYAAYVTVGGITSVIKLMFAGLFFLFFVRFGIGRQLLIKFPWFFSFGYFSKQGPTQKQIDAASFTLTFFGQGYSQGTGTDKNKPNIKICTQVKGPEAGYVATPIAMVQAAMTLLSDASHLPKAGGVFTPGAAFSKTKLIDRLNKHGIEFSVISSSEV
UniProt Q96ER3: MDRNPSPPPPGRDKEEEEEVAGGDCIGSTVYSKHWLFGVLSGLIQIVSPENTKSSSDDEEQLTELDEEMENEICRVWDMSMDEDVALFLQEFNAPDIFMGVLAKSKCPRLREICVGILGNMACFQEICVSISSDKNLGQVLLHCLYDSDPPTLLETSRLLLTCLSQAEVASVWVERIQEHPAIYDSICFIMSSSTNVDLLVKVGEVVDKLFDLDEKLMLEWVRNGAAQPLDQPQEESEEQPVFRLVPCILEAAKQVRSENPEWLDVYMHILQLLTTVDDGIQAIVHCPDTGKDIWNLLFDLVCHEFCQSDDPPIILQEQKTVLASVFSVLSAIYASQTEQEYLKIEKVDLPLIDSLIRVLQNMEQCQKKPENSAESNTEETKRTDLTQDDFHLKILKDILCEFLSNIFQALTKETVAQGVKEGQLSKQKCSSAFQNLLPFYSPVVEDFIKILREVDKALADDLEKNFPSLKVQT
UniProt Q6IQ49: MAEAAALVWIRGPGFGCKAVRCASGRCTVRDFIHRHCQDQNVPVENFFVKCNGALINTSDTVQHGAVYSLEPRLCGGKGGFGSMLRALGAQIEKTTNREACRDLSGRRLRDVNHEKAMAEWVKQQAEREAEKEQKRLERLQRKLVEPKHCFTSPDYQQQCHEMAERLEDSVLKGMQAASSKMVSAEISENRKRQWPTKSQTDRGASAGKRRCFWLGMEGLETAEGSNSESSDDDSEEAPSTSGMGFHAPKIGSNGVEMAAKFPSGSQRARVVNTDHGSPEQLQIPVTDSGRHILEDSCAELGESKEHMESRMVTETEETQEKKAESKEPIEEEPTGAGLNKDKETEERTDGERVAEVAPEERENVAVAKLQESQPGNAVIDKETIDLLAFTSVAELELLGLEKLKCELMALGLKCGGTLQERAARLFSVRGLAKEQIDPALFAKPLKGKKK
UniProt O00560: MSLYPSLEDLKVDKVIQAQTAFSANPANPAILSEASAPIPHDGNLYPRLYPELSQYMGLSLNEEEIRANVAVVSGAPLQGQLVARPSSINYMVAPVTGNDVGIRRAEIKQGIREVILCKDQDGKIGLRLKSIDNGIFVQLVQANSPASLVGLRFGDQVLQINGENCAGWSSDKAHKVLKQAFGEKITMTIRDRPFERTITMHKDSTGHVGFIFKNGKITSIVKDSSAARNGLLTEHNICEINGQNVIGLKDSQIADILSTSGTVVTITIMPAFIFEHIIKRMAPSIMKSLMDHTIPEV
UniProt O75056, whole entry, looked up: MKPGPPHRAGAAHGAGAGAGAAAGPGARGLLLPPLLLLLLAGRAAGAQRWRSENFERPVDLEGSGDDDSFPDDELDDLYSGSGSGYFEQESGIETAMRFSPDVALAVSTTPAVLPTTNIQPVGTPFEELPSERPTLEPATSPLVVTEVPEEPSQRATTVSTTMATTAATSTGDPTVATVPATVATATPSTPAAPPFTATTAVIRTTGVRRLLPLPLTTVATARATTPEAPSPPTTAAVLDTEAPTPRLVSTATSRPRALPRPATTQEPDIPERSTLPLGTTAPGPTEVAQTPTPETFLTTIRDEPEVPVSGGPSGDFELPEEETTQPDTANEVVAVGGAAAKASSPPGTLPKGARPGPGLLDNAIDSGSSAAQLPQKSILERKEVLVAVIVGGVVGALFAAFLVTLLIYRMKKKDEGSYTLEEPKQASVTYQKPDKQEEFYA

Key:
Experiment in all cases: log2 fold change, soluble protein after heating vs DMSO (PISA); higher = thermal stabilisation; K562 cells, 10 uM, 30 min; active = over 0.2 and 3.5 SD of the protein, either way, in both replicates (recomputed)
[1] = compound: C#Cc1cccc(Nc2ncnc3cc(OCCOC)c(OCCOC)cc23)c1 [erlotinib]
Method in brief: (§1)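 K562 cells at 2×10^6 cells/mL were exposed to 10 μM compound for 30 min, then aliquots were heated for 3 min across 48°C-58°C, pooled, and extracted in PBS containing 0.5% NP-40 at 4°C. The supernatant after 21,000xg for 90 min was taken as soluble protein and measured by TMTpro 16plex LC-MS/MS with channel sums equalised. Thermal stability is reported relative to control samples, with values from duplicates. Fold changes are given on a log2 scale.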

[2] = compound: C/C(=N\NC(=O)C1=CC(=CC=C1)S(=O)(=O)N2CCOCC2)/C3=C(C=CC(=C3)Cl)O
Method in brief: as §1

[3] = compound: C1=CC(=C(C=C1Cl)C2=NC3=NC=CN=C3C(=N2)NC4=CC=NC=C4)F
Method in brief: as §1

[4] = compound: C1=CC(=CC=C1C2=NC3=C(N2)C=C(C=C3)C(=O)N)OC4=CC=C(C=C4)Cl
Method in brief: as §1

[5] = compound: C1=CC2=C(C=CC(=C2)/C=C\3/C(=O)NC(=NCC4=CC=CS4)S3)N=C1
Method in brief: as §1

[6] = compound: C1=CC2=NC=CN=C2C=C1/C=C/3\C(=O)NC(=O)S3
Method in brief: as §1

[7] = compound: C1=CC=C(C=C1)C2=NC(=C(N2)C3=CC=NC=C3)C4=CC(=C(C=C4)Cl)O
Method in brief: as §1

[8] = compound: C1=CC=C2C(=C1)C3=NNC4=CC=CC(=C43)C2=O
Method in brief: as §1

[9] = compound: C1CCN(C1)C(=O)NC2=CC=CC(=C2)NC3=NC=C(C(=N3)NCCC4=CN=CN4)Br
Method in brief: as §1

[10] = compound: C1CN(CCC1(CC2=CC=C(C=C2)Cl)N)C3=NC=NC4=C3C=CN4
Method in brief: as §1

[11] = compound: C1COCCN1CCN2C3=CC=CC=C3N=C2NC(=O)C4=CC(=CC=C4)[N+](=O)[O-] [IRAK-1-4 Inhibitor I]
Method in brief: as §1

[12] = compound: C=CC(=O)N1CCC[C@@H](n2nc(-c3ccc(Oc4ccccc4)cc3)c3c(N)ncnc32)C1 [ibrutinib]
Method in brief: as §1

[13] = compound: CC(=O)c1cnc2ccc(-c3cc(Cl)c(O)c(Cl)c3)nc2c1N[C@H]1CC[C@H](CN(C)C)CC1
Method in brief: as §1

[14] = compound: CC(C)(C)Cn1c(N)nc2ccc(-c3[nH]c(C(C)(C)C)nc3-c3ccc(F)cc3)nc21 [ralimetinib]
Method in brief: as §1

[15] = compound: CC(C)(O)CC(=O)NCCn1ccc2ncnc(Nc3ccc(Oc4cccc(C(F)(F)F)c4)c(Cl)c3)c21
Method in brief: as §1

[16] = compound: CC(C)C1=C2N=C(C=C(N2N=C1)NCC3=CC=CC=C3)NCCCCCCN
Method in brief: as §1

[17] = compound: CC(C)C[C@@H](C=O)NC(=O)[C@H](CC(C)C)NC(=O)[C@H](CC(C)C)NC(=O)OCc1ccccc1
Method in brief: as §1

[18] = compound: CC(C)N(C[C@H]1O[C@@H](n2cnc3c(N)ncnc32)[C@H](O)[C@@H]1O)[C@H]1C[C@@H](CCc2nc3cc(C(C)(C)C)ccc3[nH]2)C1 [pinometostat]
Method in brief: as §1

[19] = compound: CC1=C(C2=C(C=C1)C(=O)C3=CC=CC=C3N2CCCN)C
Method in brief: as §1

[20] = compound: CC1=C(C(CC(=O)N1)C2=CC=C(C=C2)C(F)(F)F)C(=O)NC3=C(C=C4C(=C3)C=NN4)F
Method in brief: as §1

Target | log2 fold change [1] | log2 fold change [2] | log2 fold change [3] | log2 fold change [4] | log2 fold change [5] | log2 fold change [6] | log2 fold change [7] | log2 fold change [8] | log2 fold change [9] | log2 fold change [10] | log2 fold change [11] | log2 fold change [12] | log2 fold change [13] | log2 fold change [14] | log2 fold change [15] | log2 fold change [16] | log2 fold change [17] | log2 fold change [18] | log2 fold change [19] | log2 fold change [20]
SCO2 (UniProt O43819) | inactive: 0.092 | inactive: 0.012 | inactive: 0.055 | inactive: 0.048 | inactive: 0.243 | inactive: -0.054 | inactive: 0.017 | inactive: 0.163 | inactive: -0.042 | inactive: 0.101 | inactive: 0.02 | inactive: 0.014 | inactive: -0.06 | inactive: 0.142 | inactive: -0.154 | inactive: -0.071 | inactive: 0.024 | inactive: 0.054 | inactive: 0.07 | 
SCAF8 isoform 2 (UniProt Q9UPN6) | inactive: 0.203 | inactive: 0.051 | inactive: 0.048 | inactive: 0.034 | inactive: 0.124 | inactive: -0.028 | inactive: 0.298 | inactive: 0.069 | inactive: -0.031 | inactive: -0.036 | inactive: 0.035 | inactive: -0.057 | inactive: -0.145 | inactive: -0.054 | inactive: -0.169 | active: -0.417 | inactive: 0.23 | inactive: 0.065 | inactive: 0.138 | 
SCD (UniProt O00767) | inactive: 0.022 | inactive: -0.256 | inactive: 0.143 | inactive: -0.008 | inactive: 0.024 | inactive: 0.04 | inactive: -0.059 | inactive: -0.006 | inactive: 0.126 | inactive: 0.023 | inactive: 0.048 | inactive: -0.023 | inactive: 0.008 | inactive: -0.148 | inactive: -0.046 | inactive: -0.222 | inactive: 0.101 | inactive: 0 | inactive: -0.027 | 
SCAF11 (UniProt Q99590) | inactive: -0.074 | inactive: -0.09 | inactive: -0.16 | inactive: 0.03 | inactive: -0.134 | inactive: -0.076 | inactive: -0.014 | inactive: -0.068 | inactive: 0.125 | inactive: -0.035 | inactive: 0.076 | inactive: 0.099 | active: 0.714 | inactive: 0.166 | inactive: -0.084 | inactive: 0.134 | inactive: 0.213 | inactive: 0.157 | inactive: 0.112 | 
SCCPDH (UniProt Q8NBX0) | inactive: -0.047 | inactive: -0.021 | inactive: 0.079 | inactive: -0.065 | inactive: 0.019 | inactive: 0.051 | inactive: 0.037 | inactive: 0.03 | inactive: 0.011 | inactive: 0.064 | inactive: -0.005 | inactive: 0.061 | inactive: 0.031 | inactive: 0.059 | inactive: 0.156 | inactive: 0.038 | inactive: -0.032 | inactive: -0.073 | inactive: 0.023 | 
SAAL1 (UniProt Q96ER3) | inactive: -0.044 | inactive: 0.028 | inactive: 0.046 | inactive: 0.022 | inactive: -0.033 | inactive: 0.125 | inactive: -0.041 | inactive: -0.007 | inactive: 0.042 | inactive: -0.03 | inactive: 0.019 | inactive: -0.035 | active: 0.578 | inactive: -0.033 | inactive: -0.112 | inactive: 0.012 | inactive: 0.032 | inactive: 0.073 | active: 0.239 | 
SDE2 (UniProt Q6IQ49) | inactive: -0.033 | inactive: -0.016 | inactive: -0.064 | inactive: 0.019 | inactive: -0.028 | inactive: 0.001 | inactive: -0.037 | inactive: -0.038 | inactive: -0.001 | inactive: 0.002 | inactive: 0.006 | inactive: 0.003 | inactive: 0.057 | inactive: -0.029 | inactive: 0.022 | inactive: 0.025 | inactive: -0.002 | inactive: 0.006 | inactive: 0.013 | inactive: -0.009
SDCBP isoform 2 (UniProt O00560) | inactive: 0.157 |  | inactive: 0.007 | inactive: 0.159 |  | inactive: 0.009 | inactive: -0.299 |  | inactive: 0.249 | inactive: 0.096 |  | inactive: 0 |  | inactive: 0.06 | inactive: 0.008 | inactive: -0.444 | inactive: 0.13 |  | inactive: 0.033 | 
SDC3 (UniProt O75056) |  | inactive: -0.135 | inactive: -0.015 |  | inactive: 0.05 |  |  | inactive: -0.157 | inactive: -0.139 | inactive: 0.203 |  |  | inactive: 0.089 |  | inactive: -0.006 |  |  |  | inactive: -0.036 | 
